Results from one PubChem assay

Source: PubChem BioAssay AID2660 (NCATS, 2010).

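Tsc2-/- p53-/- mouse embryonic fibroblasts dosed for 24 h, with phospho-rpS6 antibody fluorescence, normalized to propidium iodide cell count, read by laser-scanning cytometry. Compounds were titrated over seven concentrations spanning about 0.0024 to 38 µM. The number is a fitted half-maximal potency (AC50) for inhibiting S6 phosphorylation; a smaller value indicates a more potent compound. Calls follow curve class plus fitted LogAC50, scored 40-100 for actives and 1-39 for inconclusives, with inactives scored 0.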

Values are in nM. Every entry below has the call inconclusive. Only part of the assay is shown, chiefly results filed as inconclusive. Potencies fitted to partial, single-point or poorly fitting curves are rough. Some entries filed as inconclusive have a full curve. Activity scores are not listed here.

| # | SMILES | fitted potency (nM) | curve as filed |
|---|---|---|---|
| 1 | `C[C@](N)(Cc1ccc(O)c(O)c1)C(=O)O` | 26121 | falling, single point |
| 2 | `COc1ccccc1N1CCN(CC(O)COc2cccc3ccccc23)CC1` (stereo not shown) | 23280 | falling, single point |
| 3 | `CC(=O)/C=C1\C(=O)N(C)c2ccccc21` | 26121 | falling, single point |
| 4 | `O=Nc1ccc2oc(=O)ccc2c1` | 26121 | falling, single point |
| 5 | `O=C(/C=C/c1ccc(O)c(O)c1)OCCc1ccccc1` | 9268 | falling, partial curve |
| 6 | `CC1(C)CCC2=C(O1)c1ccccc1C(=O)C2=O` | 26121 | falling, single point |
| 7 | `CC(C)(C)c1ccc(C(=O)CCCN2CCC(OC(c3ccccc3)c3ccccc3)CC2)cc1` | 23280 | falling, single point |
| 8 | `O=C1NC(=O)/C(=C/c2ccc3nccnc3c2)S1` | 26121 | falling, single point |
| 9 | `CCCCCCCCCCCCCCCCCCNC(=O)OCC(COP(=O)([O-])OCC[n+]1ccsc1)OC` (stereo not shown) | 23280 | falling, single point |
| 10 | `OCCN1CCN(CCCN2c3ccccc3Sc3ccc(C(F)(F)F)cc32)CC1` | 16481 | falling, single point |
| 11 | `CCN(CC)C(=S)SSC(=S)N(CC)CC` | 293.1 | falling, full curve |
| 12 | `CC[C@H]1CN2CCc3cc(OC)c(OC)cc3[C@@H]2C[C@@H]1C[C@H]1NCCc2cc(OC)c(OC)cc21` | 1849 | falling, partial curve |
| 13 | `CCOC(=O)N1CCN(/[N+]([O-])=N/Oc2ccc([N+](=O)[O-])cc2[N+](=O)[O-])CC1` | 13091 | falling, partial curve |
| 14 | `O=C1Cc2cc(CCN3CCN(c4nsc5ccccc45)CC3)c(Cl)cc2N1` | 23280 | falling, single point |
| 15 | `N#Cc1cc([N+](=O)[O-])c2sc(C(N)=O)[n+]([O-])c2c1` | 26121 | falling, single point |
| 16 | `O=Nc1c(-c2c(O)[nH]c3cc(Br)ccc23)[nH]c2ccccc12` | 18492 | falling, single point |
| 17 | `Fc1ccc([C@@H]2CCNC[C@H]2COc2ccc3c(c2)OCO3)cc1` | 26121 | falling, single point |
| 18 | `S=C(Nc1ccccc1)Nc1nccs1` | 16481 | falling, single point |
| 19 | `O=[N+]([O-])c1ccc2c(c1)S(=O)(=O)C=C2` | 2075 | falling, full curve |
| 20 | `Oc1ccc(O)cc1` | 23280 | falling, single point |
| 21 | `NCCCCNCCCN` | 23280 | falling, single point |
| 22 | `CN(C)C(=O)C(CCN1CCC(O)(c2ccc(Cl)cc2)CC1)(c1ccccc1)c1ccccc1` | 18492 | falling, single point |
| 23 | `COc1cc2nc(N3CCCN(C)CC3)nc(NC3CCN(Cc4ccccc4)CC3)c2cc1OC` | 26121 | falling, single point |
| 24 | `CSc1ccc2c(c1)C(N1CCN(C)CC1)Cc1ccccc1S2` (stereo not shown) | 18492 | falling, single point |
| 25 | `CC(C)NC[C@@H](O)c1ccc(O)c(O)c1` | 26121 | falling, single point |
| 26 | `COC(=O)C1=C(C)NC(C)=C(C(=O)OC(C)(C)CN(C)CCC(c2ccccc2)c2ccccc2)C1c1cccc([N+](=O)[O-])c1` (stereo not shown) | 14689 | falling, single point |
| 27 | `CN=c1nc(-c2ccccc2)n(-c2ccccc2)s1` | 26121 | falling, single point |
| 28 | `COc1cc([C@@H]2c3cc4c(cc3[C@H](O)C3COC(=O)[C@@H]32)OCO4)cc(OC)c1OC` (stereo partly shown) | 23.3 | falling, full curve, poor fit |
| 29 | `NC[C@@H]1O[C@H](C23CC4CC(CC(C4)C2)C3)Cc2c1ccc(O)c2O` | 18492 | falling, single point |
| 30 | `CC1=C(/C=C/C(C)=C/C=C/C(C)=C/C(=O)Nc2ccc(O)cc2)C(C)(C)CCC1` | 16481 | falling, single point |
| 31 | `CN1CCN(C2Cc3ccccc3Sc3ccc(Cl)cc32)CC1` (stereo not shown) | 13091 | falling, single point |
| 32 | `CN1CCc2cc(O)cc3c2[C@H]1Cc1ccc(O)c(O)c1-3` | 14689 | falling, single point |
| 33 | `COC(=O)C1=C(C)NC(C)=C(C(=O)OC)C1c1ccccc1[N+](=O)[O-]` | 16481 | falling, single point |
| 34 | `S=C(S)N1CCCC1` | 6561 | falling, partial curve |
| 35 | `Clc1ccc(C(c2ccc(Cl)cc2)n2cc[n+](CC(OCc3ccc(Cl)cc3Cl)c3ccc(Cl)cc3Cl)c2)cc1` (stereo not shown) | 23280 | falling, single point |
| 36 | `Cc1ccc(S(=O)(=O)N[C@@H](Cc2ccccc2)C(=O)CCl)cc1` | 18492 | falling, single point |